The data set has as its system bacteria. To be noted: the larger the value, the higher the cell selectivity. The method, then: The minimum inhibitory concentration (MIC) is a vital indicator for evaluating the antimicrobial activity of AMPs. The determination method refers to the improved method of Dong et al.. The strains to be tested were inoculated in Mueller Hinton broth (MHB) medium and cultured at 200 rpm and 37 °C until the logarithmic growth phase, and then the number of colonies was adjusted to approximately 10^5 CFU/mL. The 95 µL of bovine serum albumin (BSA) diluent (0.01% acetic acid and 0.2% BSA) and 5 µL of peptide (1.28 mM) were added to the first row of the 96-well plate, and 50 µL of BSA diluent was added to the other columns. After mixing in the first row, 50 µL of the mixture was aspirated and added to the second column and so on to the 11th row. After being cultured at 37 °C for 18–24 h, the minimum peptide concentration required to inhibit bacterial growth was the MIC value. All experiments were conducted at least three different times.
The safety of peptides is usually assessed by hemolytic activity. The collected blood of type B from healthy donor was centrifuged at 1000×g for 5 min to collect red blood cells. The red blood cells were then washed and resuspended in 10 mM PBS (pH 7.4). Fifty microliters of diluted red blood cells and an equal volume of peptide solution (2–128 µM) were incubated in a 96-well plate at 37 °C for 1 h. The red blood cell suspension treated with 0.1% Triton X-100 was used as a positive control (100% hemolysis), and untreated blood cell suspension was used as a negative control. The 96-well plate was centrifuged at 1000×g for 5 min at 4 °C, and then the supernatant was transferred to a new 96-well plate. The absorbance at OD570 was measured with a microplate reader.

Structures are written as SMILES. Where a SMILES comes first, the peptide text is derived from it.

`CC[C@H](C)[C@H](NC(=O)[C@H](CCCNC(=N)N)NC(=O)[C@H](CCC(N)=O)NC(=O)[C@@H](NC(=O)[C@@H](NC(=O)[C@H](CCCNC(=N)N)NC(=O)[C@H](CCCCN)NC(=O)[C@H](Cc1ccccc1)NC(=O)[C@H](C)NC(=O)[C@H](CCCCN)NC(=O)[C@H](C)NC(=O)[C@H](C)NC(=O)[C@H](C)NC(=O)[C@H](CCC(=O)O)NC(=O)[C@H](C)NC(=O)[C@H](CCCNC(=N)N)NC(=O)[C@H](CC(C)C)NC(=O)[C@H](Cc1ccccc1)NC(=O)[C@H](CCCNC(=N)N)NC(=O)[C@H](CCCCN)NC(=O)[C@@H](NC(=O)[C@H](CCCNC(=N)N)NC(=O)[C@H](CCC(N)=O)NC(=O)[C@@H](NC(=O)[C@@H](NC(=O)[C@H](CCCNC(=N)N)NC(=O)[C@H](CCCCN)NC(=O)[C@@H](N)Cc1ccccc1)[C@@H](C)CC)C(C)C)[C@@H](C)CC)[C@@H](C)CC)C(C)C)C(=O)N[C@@H](CCCCN)C(=O)N[C@@H](CCCNC(=N)N)C(=O)N[C@@H](Cc1ccccc1)C(=O)N[C@@H](CC(C)C)C(=O)N[C@@H](CCCNC(=N)N)C(=O)O` [LA] (H-FKRIVQRIKRFLRAEAAAKAFKRIVQRIKRFLR-OH): the “SI (Selection index = MHC/GM)” value was determined as 4. Take `CC[C@H](C)[C@H](NC(=O)[C@H](CCCNC(=N)N)NC(=O)[C@H](CCC(N)=O)NC(=O)[C@@H](NC(=O)[C@@H](NC(=O)[C@H](CCCNC(=N)N)NC(=O)[C@H](CCCCN)NC(=O)[C@H](Cc1ccccc1)NC(=O)[C@H](CCCNC(=N)N)NC(=O)[C@H](CC(C)C)NC(=O)[C@H](Cc1ccccc1)NC(=O)[C@H](CCCNC(=N)N)NC(=O)[C@H](CCCCN)NC(=O)[C@@H](NC(=O)[C@H](CCCNC(=N)N)NC(=O)[C@H](CCC(N)=O)NC(=O)[C@@H](NC(=O)[C@@H](NC(=O)[C@H](CCCNC(=N)N)NC(=O)[C@H](CCCCN)NC(=O)[C@@H](N)Cc1ccccc1)[C@@H](C)CC)C(C)C)[C@@H](C)CC)[C@@H](C)CC)C(C)C)C(=O)N[C@@H](CCCCN)C(=O)N[C@@H](CCCNC(=N)N)C(=O)N[C@@H](Cc1ccccc1)C(=O)N[C@@H](CC(C)C)C(=O)N[C@@H](CCCNC(=N)N)C(=O)O` [(FR)2] (H-FKRIVQRIKRFLRFKRIVQRIKRFLR-OH): the “SI (Selection index = MHC/GM)” value stood at 9.87. Consider `CC[C@H](C)[C@H](NC(=O)[C@H](CCCNC(=N)N)NC(=O)[C@H](CCC(N)=O)NC(=O)[C@@H](NC(=O)[C@@H](NC(=O)[C@H](CCCNC(=N)N)NC(=O)[C@H](CCCCN)NC(=O)[C@H](Cc1ccccc1)NC(=O)[C@H](CO)NC(=O)CNC(=O)CNC(=O)CNC(=O)CNC(=O)[C@H](CCCNC(=N)N)NC(=O)[C@H](CC(C)C)NC(=O)[C@H](Cc1ccccc1)NC(=O)[C@H](CCCNC(=N)N)NC(=O)[C@H](CCCCN)NC(=O)[C@@H](NC(=O)[C@H](CCCNC(=N)N)NC(=O)[C@H](CCC(N)=O)NC(=O)[C@@H](NC(=O)[C@@H](NC(=O)[C@H](CCCNC(=N)N)NC(=O)[C@H](CCCCN)NC(=O)[C@@H](N)Cc1ccccc1)[C@@H](C)CC)C(C)C)[C@@H](C)CC)[C@@H](C)CC)C(C)C)C(=O)N[C@@H](CCCCN)C(=O)N[C@@H](CCCNC(=N)N)C(=O)N[C@@H](Cc1ccccc1)C(=O)N[C@@H](CC(C)C)C(=O)N[C@@H](CCCNC(=N)N)C(=O)O` [LG] (H-FKRIVQRIKRFLRGGGGSFKRIVQRIKRFLR-OH), for which the “SI (Selection index = MHC/GM)” value worked out at 32.
